Measured values as given in patent US8580839B2, “Photosensitizer formulations and their use” (Biolitec Pharma Marketing Ltd, priority 2005, dated 2013).
Like-named read-outs stand apart in the source and are kept apart here. For at least one compound, name, drawing or mass did not settle the structure.

Experiments:
tumors = details: cited from earlier work; for depth of tumor necrosis: light 652-653 nm
skin cancer (BCC) = test: Temoporfin-based PDT with variable drug-light intervals in patients with skin cancer (BCC); assay type: in vivo; details: Example 3, 2 patients m-THPC, 6 patients m-THPC-DL

For `Oc1cccc(-c2c3nc(c(-c4cccc(O)c4)c4ccc([nH]4)c(-c4cccc(O)c4)c4nc(c(-c5cccc(O)c5)c5ccc2[nH]5)CC4)C=C3)c1` [m-THPC, Meta-tetra(hydroxyphenyl)chlorin], the “increase of depth of tumor necrosis at the higher dose” value (tumors; 0.5 mg/kg compared to 0.255 mg/kg) is given as 43%, the “depth of tumor necrosis” value (tumors; dosed at 0.255 mg/kg) is given as 3.79±0.28 mm and the “depth of tumor necrosis” value (tumors; dosed at 0.5 mg/kg) is given as 5.41±0.39 mm. The “overall result of PDT in BCC patients” value (skin cancer (BCC)) was “minimal sign of photodynamic therapy”.
